# For some of these results: For expression read-outs the peptide stands for its source gene, whose mRNA was measured; the gene is not named for every peptide.
# Assays:
# additional tumor types = test: LC-MS presentation of peptides on additional tumor types versus normal tissues; parameters: species or system human; details: for Other relevant organs/diseases: additional tumor types where over-presented on more than 5% of measured tumor samples, or presented on more than 5% with ratio of geometric means tumor vs normal larger than 3 (Table 4A); for Additional Entities: additional tumor types, same criteria, other normal tissue panel (Table 4B)
# [1] = tested on: head and neck squamous cell carcinoma samples; test: Identification and label-free LC-MS quantitation of HLA-presented peptides (presentation profile) on HNSCC versus normal tissues; parameters: species or system human; key: very highly over-presented on tumors compared to a panel of normal tissues (+++); highly over-presented on tumors compared to a panel of normal tissues (++); over-presented on tumors compared to a panel of normal tissues (+); details: presentation score: over-presentation on head and neck squamous cell carcinoma tumors compared to a panel of normal tissues
# [2] = tested on: source genes in head and neck squamous cell carcinoma; test: Expression profiling (RNASeq) of genes encoding the peptides; parameters: species or system human; key: very highly over-expressed in tumors compared to a panel of normal tissues (+++); highly over-expressed in tumors compared to a panel of normal tissues (++); over-expressed in tumors compared to a panel of normal tissues (+); details: expression score of source gene, tumors compared to a panel of normal tissues
Substance,Other relevant organs/diseases (additional tumor types),Peptide Presentation [1],Additional Entities (additional tumor types),Gene Expression [2]
23 (SLPESGLLSV; listed as Homo sapiens) [compound 23],Esophageal Cancer,+++,,
24 (LLIAINPQV; listed as Homo sapiens) [compound 24],"AML, Urinary bladder cancer",+++,,
27 (YLAEPQWAV; listed as Homo sapiens) [compound 27],"Esophageal Cancer, Urinary bladder cancer",+++,,
29 (RLLPDLDEV; listed as Homo sapiens) [compound 29],AML,+++,,
31 (HLATVKLLV; listed as Homo sapiens) [compound 31],"Urinary bladder cancer, Uterine Cancer",+++,,
32 (IQDAEGAIHEV; listed as Homo sapiens) [compound 32],"NHL, Melanoma, Esophageal Cancer, Urinary bladder cancer",+++,,
37 (ILLEDVFQL; listed as Homo sapiens) [compound 37],"Gallbladder Cancer, Bile Duct Cancer",+++,,
39 (LLPEDDTRDNV; listed as Homo sapiens) [compound 39],"BRCA, Esophageal Cancer, Urinary bladder cancer",+++,,
41 (RLNGEGVGQVNISV; listed as Homo sapiens) [compound 41],Esophageal Cancer,+++,,
42 (ALYTSGHLL; listed as Homo sapiens) [compound 42],"Esophageal Cancer, Gallbladder Cancer, Bile Duct Cancer",+++,,
43 (AVLGGKLYV; listed as Homo sapiens) [compound 43],"CLL, NHL, AML, Melanoma, Uterine Cancer",+++,"RCC, GC, HCC",
45 (GLIEWLENTV; listed as Homo sapiens) [compound 45],"SCLC, OC, Urinary bladder cancer",+++,HCC,
46 (GLISSIEAQL; listed as Homo sapiens) [compound 46],"Esophageal Cancer, Urinary bladder cancer, Uterine Cancer",+++,,
47 (QLLEGELETL; listed as Homo sapiens) [compound 47],"Urinary bladder cancer, Uterine Cancer",+++,,
48 (YLLDYPNNL; listed as Homo sapiens) [compound 48],"NHL, BRCA, Melanoma, Esophageal Cancer, Urinary bladder cancer, Uterine Cancer, Gallbladder Cancer, Bile Duct Cancer",+++,,
49 (YLWEAHTNI; listed as Homo sapiens) [compound 49],"Esophageal Cancer, Uterine Cancer",+++,,
50 (ALSNVVHKV; listed as Homo sapiens) [compound 50],"GC, BRCA, Esophageal Cancer, Urinary bladder cancer",+++,NSCLC,
51 (FLIPSIIFA; listed as Homo sapiens) [compound 51],"Urinary bladder cancer, Uterine Cancer",+++,,
52 (LLFTGLVSGV; listed as Homo sapiens) [compound 52],Esophageal Cancer,+++,,
54 (RLSGEGVGPV; listed as Homo sapiens) [compound 54],Esophageal Cancer,+++,,
56 (FLQLETEQV; listed as Homo sapiens) [compound 56],"BRCA, Melanoma, Urinary bladder cancer, Uterine Cancer",+++,,
58 (SLSDIQPCL; listed as Homo sapiens) [compound 58],"Brain Cancer, BRCA, Esophageal Cancer, Urinary bladder cancer, Uterine Cancer",+++,,

Substance,Other relevant organs/diseases (additional tumor types),Peptide Presentation [1],Additional Entities (additional tumor types),Gene Expression [2]
59: peptide found in DSP (gene looked up) (YLQNEVFGL; listed as Homo sapiens) [compound 59],"SCLC, NHL",,,+++
60 (SLGNFKDDLL; listed as Homo sapiens) [compound 60],"NHL, Esophageal Cancer, Urinary bladder cancer",+++,NSCLC,
61 (FVAGYIAGV; listed as Homo sapiens) [compound 61],"NSCLC, SCLC, RCC, Brain Cancer, GC, CLL, NHL, Esophageal Cancer, Gallbladder Cancer, Bile Duct Cancer",+++,HCC,
62 (ILSSACYTV; listed as Homo sapiens) [compound 62],"RCC, BRCA, Esophageal Cancer",+++,,
63 (ALMDEINFMKM; listed as Homo sapiens) [compound 63],"NSCLC, SCLC, NHL",++,,
67 (AQLNLIWQL; listed as Homo sapiens) [compound 67],"SCLC, Melanoma, OC, Uterine Cancer, Gallbladder Cancer, Bile Duct Cancer",+,,
69 (YVMESMTYL; listed as Homo sapiens) [compound 69],"Urinary bladder cancer, Gallbladder Cancer, Bile Duct Cancer",+,,
70 (FLFPAFLTA; listed as Homo sapiens) [compound 70],"AML, Gallbladder Cancer, Bile Duct Cancer",+++,,
71 (SLFPYVVLI; listed as Homo sapiens) [compound 71],Melanoma,+++,,
72 (SLDGNPLAV; listed as Homo sapiens) [compound 72],"Esophageal Cancer, Uterine Cancer, Gallbladder Cancer, Bile Duct Cancer",+++,,
73 (YIDPYKLLPL; listed as Homo sapiens) [compound 73],"CLL, NHL, AML, Melanoma",+++,"BRCA, Urinary bladder cancer",
74 (SLTSFLISL; listed as Homo sapiens) [compound 74],Urinary bladder cancer,+++,,
75 (ALASAPTSV; listed as Homo sapiens) [compound 75],"BRCA, Esophageal Cancer, Uterine Cancer, Gallbladder Cancer, Bile Duct Cancer",+++,HCC,
78 (VLYGDVEEL; listed as Homo sapiens) [compound 78],"CLL, Urinary bladder cancer, Gallbladder Cancer, Bile Duct Cancer",+++,,
79 (GLHQDFPSVVL; listed as Homo sapiens) [compound 79],"NHL, BRCA, Uterine Cancer",+,,
81 (VLAENPDIFAV; listed as Homo sapiens) [compound 81],"SCLC, MCC, Melanoma, Urinary bladder cancer",+++,,
83 (QLLQYVYNL; listed as Homo sapiens) [compound 83],"SCLC, NHL, AML, Uterine Cancer",+++,,
85 (QLIEKITQV; listed as Homo sapiens) [compound 85],"SCLC, NHL, Melanoma, Urinary bladder cancer, Gallbladder Cancer, Bile Duct Cancer",+++,,
86 (SLQERQVFL; listed as Homo sapiens) [compound 86],"NHL, Urinary bladder cancer",+++,,
88 (LMAPAPSTV; listed as Homo sapiens) [compound 88],"Brain Cancer, Esophageal Cancer, Urinary bladder cancer",++,Melanoma,
90 (TLNDGVVVQV; listed as Homo sapiens) [compound 90],"RCC, CLL, NHL, Esophageal Cancer, Urinary bladder cancer, Uterine Cancer",+,,
